From patent publication US6605443
Results are given in words; binding and its absence hold for the method and conditions named. In cells and extracts the contact can be indirect. Some results given as binding are weak or reduced against the parent protein; the word gives no strength. For some assays here: Where a sequence is shown, tags or fusion partners need not be part of it.

Amino acid sequences for entries named in this document (tags omitted). A change or cut given only in a name is not applied to a line headed by its entry. Residues count along the entry.
UniProt P36897: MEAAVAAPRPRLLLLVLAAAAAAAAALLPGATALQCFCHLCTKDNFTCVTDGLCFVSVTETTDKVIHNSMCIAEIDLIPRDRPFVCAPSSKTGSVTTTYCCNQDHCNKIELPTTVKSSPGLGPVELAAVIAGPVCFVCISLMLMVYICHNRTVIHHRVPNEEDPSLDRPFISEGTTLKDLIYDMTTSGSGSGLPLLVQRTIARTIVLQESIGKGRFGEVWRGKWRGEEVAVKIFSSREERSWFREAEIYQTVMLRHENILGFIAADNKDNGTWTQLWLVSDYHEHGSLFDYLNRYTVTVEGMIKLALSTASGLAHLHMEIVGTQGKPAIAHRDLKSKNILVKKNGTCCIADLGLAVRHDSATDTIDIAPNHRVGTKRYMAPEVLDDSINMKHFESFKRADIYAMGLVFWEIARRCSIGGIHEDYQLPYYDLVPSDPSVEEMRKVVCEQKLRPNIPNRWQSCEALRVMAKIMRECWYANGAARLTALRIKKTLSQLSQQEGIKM
UniProt P36894, residues 24-532: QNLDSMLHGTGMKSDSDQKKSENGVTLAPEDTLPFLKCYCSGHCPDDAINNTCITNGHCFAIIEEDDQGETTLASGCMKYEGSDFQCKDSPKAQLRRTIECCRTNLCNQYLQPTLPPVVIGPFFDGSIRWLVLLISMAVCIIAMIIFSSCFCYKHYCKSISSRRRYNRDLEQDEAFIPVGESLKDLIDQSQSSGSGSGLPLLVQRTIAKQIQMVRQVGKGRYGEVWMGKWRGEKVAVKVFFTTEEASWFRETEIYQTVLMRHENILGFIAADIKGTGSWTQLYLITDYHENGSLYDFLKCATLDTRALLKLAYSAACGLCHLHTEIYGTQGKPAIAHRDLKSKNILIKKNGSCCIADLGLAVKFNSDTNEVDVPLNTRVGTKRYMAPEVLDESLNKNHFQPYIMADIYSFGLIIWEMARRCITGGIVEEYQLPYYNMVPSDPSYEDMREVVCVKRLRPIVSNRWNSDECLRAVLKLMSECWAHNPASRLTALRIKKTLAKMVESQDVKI
UniProt O00238, residues 14-502: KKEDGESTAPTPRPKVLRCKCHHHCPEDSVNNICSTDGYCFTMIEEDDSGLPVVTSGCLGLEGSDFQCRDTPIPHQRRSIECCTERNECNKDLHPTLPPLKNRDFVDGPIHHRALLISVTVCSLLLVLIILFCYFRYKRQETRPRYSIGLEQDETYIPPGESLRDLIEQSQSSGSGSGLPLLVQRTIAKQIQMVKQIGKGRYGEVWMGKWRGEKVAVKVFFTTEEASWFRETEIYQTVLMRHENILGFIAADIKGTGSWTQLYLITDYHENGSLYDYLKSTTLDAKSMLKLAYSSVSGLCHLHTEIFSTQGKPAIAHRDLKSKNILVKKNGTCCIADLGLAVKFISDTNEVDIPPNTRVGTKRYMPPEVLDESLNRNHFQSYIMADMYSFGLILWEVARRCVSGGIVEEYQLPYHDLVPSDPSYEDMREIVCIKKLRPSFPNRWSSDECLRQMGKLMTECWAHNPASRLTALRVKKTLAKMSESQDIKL
UniProt O35253: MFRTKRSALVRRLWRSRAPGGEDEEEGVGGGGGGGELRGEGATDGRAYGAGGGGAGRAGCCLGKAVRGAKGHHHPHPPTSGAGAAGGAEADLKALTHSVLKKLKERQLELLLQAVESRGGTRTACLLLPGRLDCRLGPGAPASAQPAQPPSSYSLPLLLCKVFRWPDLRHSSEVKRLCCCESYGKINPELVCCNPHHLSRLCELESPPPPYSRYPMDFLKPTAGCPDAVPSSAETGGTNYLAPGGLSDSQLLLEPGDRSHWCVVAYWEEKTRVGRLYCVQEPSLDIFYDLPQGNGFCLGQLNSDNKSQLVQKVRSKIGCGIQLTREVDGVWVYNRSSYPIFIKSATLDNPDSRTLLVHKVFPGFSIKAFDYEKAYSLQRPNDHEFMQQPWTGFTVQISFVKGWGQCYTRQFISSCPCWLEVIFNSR

What was measured:
[1] = target: TGF-β receptor complex (wild-type TβR-I in complex with wild-type TβR-II) (UniProt P36897); assay: co-immunoprecipitation of affinity-labeled receptors, COS cells
[2] = target: TGF-β receptor complex (wild-type TβR-I in complex with wild-type TβR-II) (UniProt P36897); assay: co-immunoprecipitation of 125I-TGF-β1 affinity-labeled receptors, COS cells
[3] = target: BMPR-IA tagged at C-terminus with HA epitope (co-expressed with BMPR-II) (UniProt P36894); assay: summary of the co-immunoprecipitation examples
[4] = target: BMPR-IB tagged at C-terminus with HA epitope (co-expressed with BMPR-II) (UniProt O00238); assay: summary of the co-immunoprecipitation examples
[5] = target: BMPR-IA tagged at C-terminus with HA epitope (co-expressed with BMPR-II) (UniProt P36894); assay: co-immunoprecipitation, cultured mammalian cells
[6] = target: BMPR-IB tagged at C-terminus with HA epitope (co-expressed with BMPR-II) (UniProt O00238); assay: co-immunoprecipitation, cultured mammalian cells
[7] = target: T1, ActR-I tagged at C-terminus with HA epitope (co-expressed with BMPR-II) (UniProt Q04771); assay: co-immunoprecipitation of affinity-labeled receptors, COS cells
T1 sequence (looked up): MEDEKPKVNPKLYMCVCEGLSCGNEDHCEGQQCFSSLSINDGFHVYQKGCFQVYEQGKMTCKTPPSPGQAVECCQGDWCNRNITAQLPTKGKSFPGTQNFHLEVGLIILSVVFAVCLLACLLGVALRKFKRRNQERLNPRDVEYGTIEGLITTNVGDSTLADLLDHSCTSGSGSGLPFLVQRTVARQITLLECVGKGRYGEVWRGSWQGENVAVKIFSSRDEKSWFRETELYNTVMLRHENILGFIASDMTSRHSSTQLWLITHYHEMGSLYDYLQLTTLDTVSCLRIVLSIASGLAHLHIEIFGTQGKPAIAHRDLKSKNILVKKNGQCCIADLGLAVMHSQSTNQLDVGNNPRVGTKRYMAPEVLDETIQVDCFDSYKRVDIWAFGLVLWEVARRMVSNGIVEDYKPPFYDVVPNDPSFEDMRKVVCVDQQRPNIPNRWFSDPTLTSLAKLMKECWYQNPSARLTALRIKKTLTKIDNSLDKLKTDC

[8] = target: BMPR-IA tagged at C-terminus with HA epitope (co-expressed with BMPR-II) (UniProt P36894); assay: as above
[9] = target: BMPR-IB tagged at C-terminus with HA epitope (co-expressed with BMPR-II) (UniProt O00238); assay: as above
[10] = target: T1, ActR-I tagged at C-terminus with HA epitope (co-expressed with BMPR-II); assay: co-immunoprecipitation with Flag antibody of 125I-BMP-7 affinity-labeled receptors, COS cells
[11] = target: BMPR-IA tagged at C-terminus with HA epitope (co-expressed with BMPR-II) (UniProt P36894); assay: as above
[12] = target: BMPR-IB tagged at C-terminus with HA epitope (co-expressed with BMPR-II) (UniProt O00238); assay: as above
[13] = target: TGF-β receptor complex (wild-type TβR-I in complex with wild-type TβR-II) (UniProt P36897); assay: co-immunoprecipitation with Flag antiserum of 125I-TGF-β1 affinity-labeled receptors, COS cells

Measured: binding

N-terminally Flag tagged mouse Smad7 C-terminal domain (amino acids 204-426 of mSmad7) (from UniProt O35253 204-426)
binds: [1] | [2]

N-terminally Flag-tagged Smad7 (F-Smad7) (from UniProt O35253 1-426)
binds: [3] | [4] | [5] | [6] | [7] | [8] | [9] | [1] | [10] | [11] | [12] | [13]
